Data as given in the supplement of paper PMC12823440, “Inhibitors supercharge kinase turnover through native proteolytic circuits” (Nature, 2025).
Counter-ions that a name gives are not always drawn. The list shows a part of the results. The calls rarely recur for the same compound in another form.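 In K562 cells expressing nanoluciferase-fused kinases, luminescence was recorded at 4 h intervals between 2 and 18 h, normalized as percent of control with DMSO at 100% and a positive control at 0%. A significant (2 sigma) signal drop marks a time point as decreased. The authors' rule for a hit is not shown and takes in more than the number of time points.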

The chains behind the UniProt entries cited, without tags or fusion partners. Where a name states a change or a piece, a line headed by the entry shows the natural chain unless it says otherwise.
UniProt Q9UBF8: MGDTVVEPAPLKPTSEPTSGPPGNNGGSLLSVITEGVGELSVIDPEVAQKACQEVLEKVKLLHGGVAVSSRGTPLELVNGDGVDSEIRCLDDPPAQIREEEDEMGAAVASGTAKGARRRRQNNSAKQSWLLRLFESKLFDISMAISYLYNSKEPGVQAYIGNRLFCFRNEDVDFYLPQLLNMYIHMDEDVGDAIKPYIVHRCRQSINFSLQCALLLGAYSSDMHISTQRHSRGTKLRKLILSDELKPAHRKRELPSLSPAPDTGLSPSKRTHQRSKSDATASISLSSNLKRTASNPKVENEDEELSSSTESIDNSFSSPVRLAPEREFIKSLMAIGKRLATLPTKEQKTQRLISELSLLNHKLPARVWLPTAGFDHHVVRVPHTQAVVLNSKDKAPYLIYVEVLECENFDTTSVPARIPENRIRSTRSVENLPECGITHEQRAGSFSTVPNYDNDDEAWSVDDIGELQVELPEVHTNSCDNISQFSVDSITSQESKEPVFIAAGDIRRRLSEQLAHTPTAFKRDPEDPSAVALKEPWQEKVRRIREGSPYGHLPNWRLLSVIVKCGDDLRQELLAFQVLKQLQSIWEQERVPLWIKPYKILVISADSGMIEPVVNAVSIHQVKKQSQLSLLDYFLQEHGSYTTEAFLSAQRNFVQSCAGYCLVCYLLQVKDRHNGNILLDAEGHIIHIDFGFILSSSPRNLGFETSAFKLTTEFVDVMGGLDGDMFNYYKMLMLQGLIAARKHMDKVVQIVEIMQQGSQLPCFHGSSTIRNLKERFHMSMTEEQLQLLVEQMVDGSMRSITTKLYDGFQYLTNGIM
UniProt P53350, whole entry: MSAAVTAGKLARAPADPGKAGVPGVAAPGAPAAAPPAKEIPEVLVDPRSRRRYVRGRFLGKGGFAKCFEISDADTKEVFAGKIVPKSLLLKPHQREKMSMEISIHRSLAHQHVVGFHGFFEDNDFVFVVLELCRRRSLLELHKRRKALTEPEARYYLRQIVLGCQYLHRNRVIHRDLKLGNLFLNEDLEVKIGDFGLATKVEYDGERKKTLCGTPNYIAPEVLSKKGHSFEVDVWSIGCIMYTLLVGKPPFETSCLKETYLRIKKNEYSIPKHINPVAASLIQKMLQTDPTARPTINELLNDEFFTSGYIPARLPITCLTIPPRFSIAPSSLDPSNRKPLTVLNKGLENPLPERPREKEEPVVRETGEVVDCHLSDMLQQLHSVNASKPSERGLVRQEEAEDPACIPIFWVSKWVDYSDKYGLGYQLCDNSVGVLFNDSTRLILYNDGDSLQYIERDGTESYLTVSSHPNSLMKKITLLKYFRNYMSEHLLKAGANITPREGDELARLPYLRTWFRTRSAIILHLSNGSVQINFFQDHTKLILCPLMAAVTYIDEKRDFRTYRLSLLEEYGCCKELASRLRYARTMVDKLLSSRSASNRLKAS
UniProt Q05397, whole entry, looked up: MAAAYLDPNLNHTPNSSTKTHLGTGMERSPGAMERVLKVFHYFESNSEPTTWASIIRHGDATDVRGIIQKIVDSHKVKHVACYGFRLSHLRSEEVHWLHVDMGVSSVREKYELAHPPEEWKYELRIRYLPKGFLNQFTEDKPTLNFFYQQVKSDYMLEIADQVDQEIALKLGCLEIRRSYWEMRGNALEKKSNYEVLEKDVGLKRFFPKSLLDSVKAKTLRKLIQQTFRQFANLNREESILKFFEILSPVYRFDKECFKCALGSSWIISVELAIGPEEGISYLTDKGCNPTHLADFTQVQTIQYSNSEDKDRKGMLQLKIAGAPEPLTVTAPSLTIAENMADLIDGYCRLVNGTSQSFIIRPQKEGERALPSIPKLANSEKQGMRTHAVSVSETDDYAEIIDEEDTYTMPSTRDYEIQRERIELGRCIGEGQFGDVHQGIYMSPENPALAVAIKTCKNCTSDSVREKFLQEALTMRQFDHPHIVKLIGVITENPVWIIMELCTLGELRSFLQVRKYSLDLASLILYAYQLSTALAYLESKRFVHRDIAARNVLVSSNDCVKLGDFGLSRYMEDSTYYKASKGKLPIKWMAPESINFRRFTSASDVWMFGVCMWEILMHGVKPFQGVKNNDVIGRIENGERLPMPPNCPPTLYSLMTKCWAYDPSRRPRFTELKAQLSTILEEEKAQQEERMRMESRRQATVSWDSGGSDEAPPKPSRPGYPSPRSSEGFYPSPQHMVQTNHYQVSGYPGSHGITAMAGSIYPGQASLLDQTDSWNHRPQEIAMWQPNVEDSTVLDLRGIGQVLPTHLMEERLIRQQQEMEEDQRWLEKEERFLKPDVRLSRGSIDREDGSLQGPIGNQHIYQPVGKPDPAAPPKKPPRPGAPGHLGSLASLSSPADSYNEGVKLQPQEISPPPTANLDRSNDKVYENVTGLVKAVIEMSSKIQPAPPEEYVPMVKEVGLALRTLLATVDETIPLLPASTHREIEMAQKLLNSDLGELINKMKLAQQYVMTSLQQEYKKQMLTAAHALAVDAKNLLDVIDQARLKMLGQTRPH
UniProt P07949, whole entry, looked up: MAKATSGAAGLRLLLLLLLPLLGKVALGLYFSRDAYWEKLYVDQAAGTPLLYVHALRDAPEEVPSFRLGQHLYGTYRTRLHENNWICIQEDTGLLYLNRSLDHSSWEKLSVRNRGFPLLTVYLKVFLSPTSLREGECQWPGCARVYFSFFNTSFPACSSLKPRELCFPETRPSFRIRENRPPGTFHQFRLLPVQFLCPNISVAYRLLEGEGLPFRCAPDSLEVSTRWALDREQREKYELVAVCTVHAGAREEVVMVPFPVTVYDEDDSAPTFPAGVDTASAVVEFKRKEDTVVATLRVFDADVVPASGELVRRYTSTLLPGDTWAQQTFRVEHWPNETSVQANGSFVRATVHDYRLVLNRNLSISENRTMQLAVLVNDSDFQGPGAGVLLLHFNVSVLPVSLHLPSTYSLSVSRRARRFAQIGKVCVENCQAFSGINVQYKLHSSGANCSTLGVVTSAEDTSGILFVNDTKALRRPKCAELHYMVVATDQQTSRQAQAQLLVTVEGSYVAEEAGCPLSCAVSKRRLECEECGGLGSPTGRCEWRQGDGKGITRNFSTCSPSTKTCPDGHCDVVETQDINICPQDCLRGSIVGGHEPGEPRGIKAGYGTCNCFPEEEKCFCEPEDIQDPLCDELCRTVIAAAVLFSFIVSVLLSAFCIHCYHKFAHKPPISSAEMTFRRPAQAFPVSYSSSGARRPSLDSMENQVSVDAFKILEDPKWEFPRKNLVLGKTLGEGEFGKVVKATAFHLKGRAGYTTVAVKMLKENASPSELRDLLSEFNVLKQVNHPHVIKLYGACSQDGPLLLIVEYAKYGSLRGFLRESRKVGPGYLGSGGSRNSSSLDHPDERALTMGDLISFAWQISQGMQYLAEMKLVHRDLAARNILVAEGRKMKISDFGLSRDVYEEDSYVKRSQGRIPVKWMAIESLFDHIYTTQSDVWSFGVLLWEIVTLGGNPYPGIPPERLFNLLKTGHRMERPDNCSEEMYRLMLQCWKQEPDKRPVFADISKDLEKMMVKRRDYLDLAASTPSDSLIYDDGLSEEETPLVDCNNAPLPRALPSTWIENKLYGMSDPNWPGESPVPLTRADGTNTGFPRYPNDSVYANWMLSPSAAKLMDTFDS
UniProt P07949, whole entry M918T, looked up: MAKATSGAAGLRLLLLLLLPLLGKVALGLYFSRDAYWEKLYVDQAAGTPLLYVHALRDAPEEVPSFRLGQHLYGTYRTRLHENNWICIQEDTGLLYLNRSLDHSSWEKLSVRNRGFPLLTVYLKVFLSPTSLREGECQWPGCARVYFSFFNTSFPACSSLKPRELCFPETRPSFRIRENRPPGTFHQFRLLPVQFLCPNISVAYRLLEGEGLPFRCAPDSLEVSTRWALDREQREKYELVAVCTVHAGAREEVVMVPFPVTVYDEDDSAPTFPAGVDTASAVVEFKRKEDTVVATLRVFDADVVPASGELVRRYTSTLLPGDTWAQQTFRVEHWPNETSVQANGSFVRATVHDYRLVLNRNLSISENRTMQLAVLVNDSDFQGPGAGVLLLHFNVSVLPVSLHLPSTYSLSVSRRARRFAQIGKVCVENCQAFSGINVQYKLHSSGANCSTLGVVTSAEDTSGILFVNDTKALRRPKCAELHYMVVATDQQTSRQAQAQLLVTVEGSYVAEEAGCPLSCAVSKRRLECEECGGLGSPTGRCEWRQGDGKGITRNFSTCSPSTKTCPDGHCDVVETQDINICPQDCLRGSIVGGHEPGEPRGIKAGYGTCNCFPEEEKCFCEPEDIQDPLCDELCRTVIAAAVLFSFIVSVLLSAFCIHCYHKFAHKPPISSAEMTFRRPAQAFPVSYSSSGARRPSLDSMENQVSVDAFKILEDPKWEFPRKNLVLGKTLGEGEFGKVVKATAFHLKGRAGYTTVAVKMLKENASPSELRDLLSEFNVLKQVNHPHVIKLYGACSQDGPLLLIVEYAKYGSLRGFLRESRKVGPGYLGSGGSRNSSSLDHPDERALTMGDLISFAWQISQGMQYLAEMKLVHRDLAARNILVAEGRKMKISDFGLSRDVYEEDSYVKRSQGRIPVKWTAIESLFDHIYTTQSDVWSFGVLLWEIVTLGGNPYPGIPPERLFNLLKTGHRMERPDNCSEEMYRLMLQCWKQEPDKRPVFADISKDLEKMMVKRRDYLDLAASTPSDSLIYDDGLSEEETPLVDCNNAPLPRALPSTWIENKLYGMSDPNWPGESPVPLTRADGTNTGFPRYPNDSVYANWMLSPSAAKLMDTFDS
UniProt Q13546: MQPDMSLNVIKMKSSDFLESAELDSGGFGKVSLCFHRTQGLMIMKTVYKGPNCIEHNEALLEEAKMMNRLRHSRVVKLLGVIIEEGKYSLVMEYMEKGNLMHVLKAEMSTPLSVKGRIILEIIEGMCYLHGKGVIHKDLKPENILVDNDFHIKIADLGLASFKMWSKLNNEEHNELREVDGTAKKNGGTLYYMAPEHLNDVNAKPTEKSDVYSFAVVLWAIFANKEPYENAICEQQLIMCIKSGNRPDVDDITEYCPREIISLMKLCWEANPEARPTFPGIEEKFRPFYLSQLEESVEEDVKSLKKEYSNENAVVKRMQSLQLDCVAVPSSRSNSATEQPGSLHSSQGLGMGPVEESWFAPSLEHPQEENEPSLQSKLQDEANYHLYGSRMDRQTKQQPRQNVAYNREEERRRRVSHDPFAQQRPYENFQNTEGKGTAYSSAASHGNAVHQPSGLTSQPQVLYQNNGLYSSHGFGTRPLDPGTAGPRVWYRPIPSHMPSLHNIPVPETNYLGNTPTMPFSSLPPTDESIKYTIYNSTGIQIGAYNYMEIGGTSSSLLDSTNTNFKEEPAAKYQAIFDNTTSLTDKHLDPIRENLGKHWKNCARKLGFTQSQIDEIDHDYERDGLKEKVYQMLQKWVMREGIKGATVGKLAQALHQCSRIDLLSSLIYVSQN
UniProt Q9NYA1, whole entry: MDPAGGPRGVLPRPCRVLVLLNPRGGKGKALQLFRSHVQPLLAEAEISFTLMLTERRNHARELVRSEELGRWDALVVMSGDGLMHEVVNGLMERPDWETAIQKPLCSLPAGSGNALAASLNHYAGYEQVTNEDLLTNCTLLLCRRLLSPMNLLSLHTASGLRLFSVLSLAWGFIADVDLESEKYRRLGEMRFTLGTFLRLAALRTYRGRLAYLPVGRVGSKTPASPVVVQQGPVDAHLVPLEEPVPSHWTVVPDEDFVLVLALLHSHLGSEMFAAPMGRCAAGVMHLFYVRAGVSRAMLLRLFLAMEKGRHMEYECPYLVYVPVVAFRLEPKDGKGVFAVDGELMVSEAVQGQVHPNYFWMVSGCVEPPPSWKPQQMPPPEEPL

Legend:
Test in all cases: kinase-Nluc reporter destabilization hit call (1 = scored as downregulated) (binary); higher = compound decreases kinase abundance
Conditions in all cases: K562; 2-18 h
PDPK1 = PDPK1 (UniProt O15530)
PIK4CA = PIK4CA (UniProt P42356)
PIK4CB = PIK4CB (UniProt Q9UBF8)
PLK1 = PLK1 (UniProt P53350)
PRKAA1 = PRKAA1 (UniProt Q13131)
PRKCA = PRKCA (UniProt P17252)
PTK2 = PTK2 (UniProt Q05397)
PTK2B = PTK2B (UniProt Q14289)
RAF1 = RAF1 (UniProt P04049)
[1] = molecular target: RAF1_S257L (clone: RAF1_mut) (UniProt P04049)
RET = RET (UniProt P07949)
[2] = molecular target: RET_M918T (clone: RET_mut) (UniProt P07949)
RIOK1 = RIOK1 (UniProt Q9BRS2)
RIPK1 = RIPK1 (UniProt Q13546)
RIPK2 = RIPK2 (UniProt O43353)
ROR2 = ROR2 (UniProt Q01974)
RPS6KA1 = RPS6KA1 (UniProt Q15418)
SPHK1 = SPHK1 (UniProt Q9NYA1)
SRC = SRC (UniProt P12931)
STK24 = STK24 (UniProt Q9Y6E0)

Measured: kinase-Nluc reporter destabilization hit call

O=C(CSC1=NCCN1)NC1CCCCCC1 [ICCB-19 (hydrochloride)] (2.5 µM)
inactive: PDPK1 = 0 | PIK4CA 0 | PIK4CB 0 | PLK1 = 0 | PRKAA1 = 0 | PRKCA 0 | PTK2 = 0 | PTK2B 0 | RAF1 = 0 | [1] 0 | RET 0 | [2] 0 | RIOK1 = 0 | RIPK1 = 0 | RIPK2 = 0 | ROR2 = 0 | RPS6KA1 = 0 | SPHK1 = 0 | SRC 0 | STK24 = 0

N#CCC1CCN(c2nc(Nc3ccc(N4CCC(O)CC4)cc3)c3c(=O)[nH]ncc3n2)CC1 [Gusacitinib] (10 µM)
inactive: PDPK1 = 0 | PIK4CA 0 | PIK4CB 0 | PLK1 = 0 | PRKAA1 = 0 | PRKCA 0 | PTK2 = 0 | PTK2B 0 | RAF1 = 0 | [1] 0 | RET 0 | [2] 0 | RIOK1 = 0 | RIPK1 = 0 | RIPK2 = 0 | ROR2 = 0 | RPS6KA1 = 0 | SPHK1 = 0 | SRC 0 | STK24 = 0

Cc1cccc(-c2[nH]ncc2-c2ccc(F)c(-c3cnn(CCO)c3)c2)n1 (10 µM)
inactive: PDPK1 = 0 | PIK4CA 0 | PIK4CB 0 | PLK1 = 0 | PRKAA1 = 0 | PRKCA 0 | PTK2 = 0 | PTK2B 0 | RAF1 = 0 | [1] 0 | RET 0 | [2] 0 | RIOK1 = 0 | RIPK1 = 0 | RIPK2 = 0 | ROR2 = 0 | RPS6KA1 = 0 | SPHK1 = 0 | SRC 0 | STK24 = 0

O=C(NCCN1CCCC1)c1cc(-c2ccc(CN3CCOCC3)cc2)nc2ccc(F)cc12 (10 µM)
inactive: PDPK1 = 0 | PIK4CA 0 | PIK4CB 0 | PLK1 = 0 | PRKAA1 = 0 | PRKCA 0 | PTK2 = 0 | PTK2B 0 | RAF1 = 0 | [1] 0 | RET 0 | [2] 0 | RIOK1 = 0 | RIPK1 = 0 | RIPK2 = 0 | ROR2 = 0 | RPS6KA1 = 0 | SPHK1 = 0 | SRC 0 | STK24 = 0

C[C@@H](c1ccc(-c2ccccc2)c(F)c1)c1cc(NC(=N)N2CCOCC2)on1 [Rimacalib] (10 µM)
inactive: PDPK1 = 0 | PIK4CA 0 | PIK4CB 0 | PLK1 = 0 | PRKAA1 = 0 | PRKCA 0 | PTK2 = 0 | PTK2B 0 | RAF1 = 0 | [1] 0 | RET 0 | [2] 0 | RIOK1 = 0 | RIPK1 = 0 | RIPK2 = 0 | ROR2 = 0 | RPS6KA1 = 0 | SPHK1 = 0 | SRC 0 | STK24 = 0

CC(=O)c1c(C)cc2cccc(O)c2c1O [Nepodin] (10 µM)
inactive: PDPK1 = 0 | PIK4CA 0 | PIK4CB 0 | PLK1 = 0 | PRKAA1 = 0 | PRKCA 0 | PTK2 = 0 | PTK2B 0 | RAF1 = 0 | [1] 0 | RET 0 | [2] 0 | RIOK1 = 0 | RIPK1 = 0 | RIPK2 = 0 | ROR2 = 0 | RPS6KA1 = 0 | SPHK1 = 0 | SRC 0 | STK24 = 0

C=CC(=O)Nc1cccc(Nc2nc(Nc3ccc(N4CCN(C(C)=O)CC4)cc3OC)ncc2C(F)(F)F)c1 [Rociletinib hydrobromide] (10 µM)
inactive: PDPK1 = 0 | PIK4CA 0 | PIK4CB 0 | PLK1 = 0 | PRKAA1 = 0 | PRKCA 0 | PTK2 = 0 | PTK2B 0 | RAF1 = 0 | [1] 0 | RET 0 | [2] 0 | RIOK1 = 0 | RIPK1 = 0 | RIPK2 = 0 | ROR2 = 0 | RPS6KA1 = 0 | SPHK1 = 0 | SRC 0 | STK24 = 0

Cc1ccc2nc(NCCN)c3ncc(C)n3c2c1 (2.5 µM)
inactive: PDPK1 = 0 | PIK4CA 0 | PIK4CB 0 | PLK1 = 0 | PRKAA1 = 0 | PRKCA 0 | PTK2 = 0 | PTK2B 0 | RAF1 = 0 | [1] 0 | RET 0 | [2] 0 | RIOK1 = 0 | RIPK1 = 0 | RIPK2 = 0 | ROR2 = 0 | RPS6KA1 = 0 | SPHK1 = 0 | SRC 0 | STK24 = 0

O=C(NCCN1CCOCC1)c1cc2c(Oc3ccc(NC(=O)C4(C(=O)Nc5ccc(F)cc5)CC4)cc3)ccnc2[nH]1 [Tyrosine kinase inhibitor] (10 µM)
inactive: PDPK1 = 0 | PIK4CA 0 | PIK4CB 0 | PLK1 = 0 | PRKAA1 = 0 | PRKCA 0 | PTK2 = 0 | PTK2B 0 | RAF1 = 0 | [1] 0 | RET 0 | [2] 0 | RIOK1 = 0 | RIPK1 = 0 | RIPK2 = 0 | ROR2 = 0 | RPS6KA1 = 0 | SPHK1 = 0 | SRC 0 | STK24 = 0

NCCNS(=O)(=O)c1cccc2c(Cl)cccc12 [A-3 (hydrochloride)] (10 µM)
inactive: PDPK1 = 0 | PIK4CA 0 | PIK4CB 0 | PLK1 = 0 | PRKAA1 = 0 | PRKCA 0 | PTK2 = 0 | PTK2B 0 | RAF1 = 0 | [1] 0 | RET 0 | [2] 0 | RIOK1 = 0 | RIPK1 = 0 | RIPK2 = 0 | ROR2 = 0 | RPS6KA1 = 0 | SPHK1 = 0 | SRC 0 | STK24 = 0

Cc1c(-c2c(F)cc(C(N)=O)c3[nH]c4c(c23)CC[C@H](C(C)(C)O)C4)cccc1-n1c(=O)c2cccc(F)c2n(C)c1=O (2.5 µM)
inactive: PDPK1 = 0 | PIK4CA 0 | PIK4CB 0 | PLK1 = 0 | PRKAA1 = 0 | PRKCA 0 | PTK2 = 0 | PTK2B 0 | RAF1 = 0 | [1] 0 | RET 0 | [2] 0 | RIOK1 = 0 | RIPK1 = 0 | RIPK2 = 0 | ROR2 = 0 | RPS6KA1 = 0 | SPHK1 = 0 | SRC 0 | STK24 = 0

Cc1c(NC(=O)c2cccn(-c3ccc(F)cc3)c2=O)ccc(Oc2ccnc(NC(=O)C3CC3)c2)c1C (2 µM)
inactive: PDPK1 = 0 | PIK4CA 0 | PIK4CB 0 | PLK1 = 0 | PRKAA1 = 0 | PRKCA 0 | PTK2 = 0 | PTK2B 0 | RAF1 = 0 | [1] 0 | RET 0 | [2] 0 | RIOK1 = 0 | RIPK1 = 0 | RIPK2 = 0 | ROR2 = 0 | RPS6KA1 = 0 | SPHK1 = 0 | SRC 0 | STK24 = 0

Cc1cc(Nc2ncnc3ccc(NC4=NC(C)(C)CO4)cc23)ccc1Oc1ccn2ncnc2c1 [Tucatinib (hemiethanolate)] (2.5 µM)
inactive: PDPK1 = 0 | PIK4CA 0 | PIK4CB 0 | PLK1 = 0 | PRKAA1 = 0 | PRKCA 0 | PTK2 = 0 | PTK2B 0 | RAF1 = 0 | [1] 0 | RET 0 | [2] 0 | RIOK1 = 0 | RIPK1 = 0 | RIPK2 = 0 | ROR2 = 0 | RPS6KA1 = 0 | SPHK1 = 0 | SRC 0 | STK24 = 0

C[C@]1(O)CCN(c2nc(N3C[C@H](O)[C@@H](O)C3)cc(C(F)(F)F)c2C#N)C1 (10 µM)
inactive: PDPK1 = 0 | PIK4CA 0 | PIK4CB 0 | PLK1 = 0 | PRKAA1 = 0 | PRKCA 0 | PTK2 = 0 | PTK2B 0 | RAF1 = 0 | [1] 0 | RET 0 | [2] 0 | RIOK1 = 0 | RIPK1 = 0 | RIPK2 = 0 | ROR2 = 0 | RPS6KA1 = 0 | SPHK1 = 0 | SRC 0 | STK24 = 0

O=Nc1c(-c2c(O)[nH]c3ccc(F)cc23)[nH]c2ccccc12 [5'-Fluoroindirubinoxime] (10 µM)
active: RET 1 | [2] 1
inactive: PDPK1 = 0 | PIK4CA 0 | PIK4CB 0 | PLK1 = 0 | PRKAA1 = 0 | PRKCA 0 | PTK2 = 0 | PTK2B 0 | RAF1 = 0 | [1] 0 | RIOK1 = 0 | RIPK1 = 0 | RIPK2 = 0 | ROR2 = 0 | RPS6KA1 = 0 | SPHK1 = 0 | SRC 0 | STK24 = 0

COCCNc1nc2ccc(C#CC3(O)CCCCC3)cc2n1-c1ccnc(N)n1 (10 µM)
inactive: PDPK1 = 0 | PIK4CA 0 | PIK4CB 0 | PLK1 = 0 | PRKAA1 = 0 | PRKCA 0 | PTK2 = 0 | PTK2B 0 | RAF1 = 0 | [1] 0 | RET 0 | [2] 0 | RIOK1 = 0 | RIPK1 = 0 | RIPK2 = 0 | ROR2 = 0 | RPS6KA1 = 0 | SPHK1 = 0 | SRC 0 | STK24 = 0

Among those listed so far, two have a cyano group.
N#CCC1CCN(c2nc(Nc3ccc(N4CCC(O)CC4)cc3)c3c(=O)[nH]ncc3n2)CC1 [Gusacitinib] (10 µM)
inactive: PDPK1 = 0 | PIK4CA 0 | PIK4CB 0 | PLK1 = 0 | PRKAA1 = 0 | PRKCA 0 | PTK2 = 0 | PTK2B 0 | RAF1 = 0 | [1] 0 | RET 0 | [2] 0 | RIOK1 = 0 | RIPK1 = 0 | RIPK2 = 0 | ROR2 = 0 | RPS6KA1 = 0 | SPHK1 = 0 | SRC 0 | STK24 = 0

C[C@]1(O)CCN(c2nc(N3C[C@H](O)[C@@H](O)C3)cc(C(F)(F)F)c2C#N)C1 (10 µM)
inactive: PDPK1 = 0 | PIK4CA 0 | PIK4CB 0 | PLK1 = 0 | PRKAA1 = 0 | PRKCA 0 | PTK2 = 0 | PTK2B 0 | RAF1 = 0 | [1] 0 | RET 0 | [2] 0 | RIOK1 = 0 | RIPK1 = 0 | RIPK2 = 0 | ROR2 = 0 | RPS6KA1 = 0 | SPHK1 = 0 | SRC 0 | STK24 = 0

(further entries)

CCc1c(C(=O)NNC(=O)C(O)c2cc(F)cc(F)c2)ccc(O)c1C (stereo not given) (10 µM)
inactive: PDPK1 = 0 | PIK4CA 0 | PIK4CB 0 | PLK1 = 0 | PRKAA1 = 0 | PRKCA 0 | PTK2 = 0 | PTK2B 0 | RAF1 = 0 | [1] 0 | RET 0 | [2] 0 | RIOK1 = 0 | RIPK1 = 0 | RIPK2 = 0 | ROR2 = 0 | RPS6KA1 = 0 | SPHK1 = 0 | SRC 0 | STK24 = 0
